Test results published in publication PMC5910400.
Results are given in words; binding and its absence hold for the method and conditions named. Sequences can lack the tags named with a protein.

Sequences of proteins named here, by UniProt entry; tags and fusion partners are left off. Residues count along the entry.
UniProt P48061, residues 22-93: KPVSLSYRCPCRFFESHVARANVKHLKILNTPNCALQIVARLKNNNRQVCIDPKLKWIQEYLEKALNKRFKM

Target: T1, P1156 (evasin from Ixodes ricinus), purified, C-terminal StrepII:His tag (Ixodes ricinus) (UniProt V5HBW0)
T1 sequence: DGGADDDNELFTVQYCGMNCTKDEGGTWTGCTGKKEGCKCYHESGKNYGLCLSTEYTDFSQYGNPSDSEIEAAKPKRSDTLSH
Assay: BLI; cross-binding screen; His-tagged evasin immobilised on Ni-NTA biosensors (OctetRed); 300 nM chemokine; 30 °C; 10 mM Na2HPO4, 1.8 mM KH2PO4, 2.7 mM KCl, 500 mM NaCl, 0.1% BSA, 0.002% TWEEN-20, pH 7.4; single experiment; both purified

Substance: CXCL12 (from UniProt P48061 22-93) (ligand)
- binding: no binding (tested: 300 nM)
